Source: PubChem BioAssay AID504847 (National Center for Advancing Translational Sciences (NCATS), 2011)
In all, about 400,000 compounds went through this assay and about 3,700 (0.93%) were called active. The shares of active, inactive and inconclusive entries below differ from those in the screen. Calls follow the shape of the dose curve; as a rule, active = well fitted inhibition curve with a large enough effect; inconclusive = small, poorly fitted or top-dose-only effect, or another doubt; inactive = no such curve, though single readings can be large or run the other way. Potencies beside an inconclusive call are fits to weak or partial responses and may not hold up.

Sequences of proteins named here, by UniProt entry; tags and fusion partners are left off.
UniProt P11473, whole entry, looked up: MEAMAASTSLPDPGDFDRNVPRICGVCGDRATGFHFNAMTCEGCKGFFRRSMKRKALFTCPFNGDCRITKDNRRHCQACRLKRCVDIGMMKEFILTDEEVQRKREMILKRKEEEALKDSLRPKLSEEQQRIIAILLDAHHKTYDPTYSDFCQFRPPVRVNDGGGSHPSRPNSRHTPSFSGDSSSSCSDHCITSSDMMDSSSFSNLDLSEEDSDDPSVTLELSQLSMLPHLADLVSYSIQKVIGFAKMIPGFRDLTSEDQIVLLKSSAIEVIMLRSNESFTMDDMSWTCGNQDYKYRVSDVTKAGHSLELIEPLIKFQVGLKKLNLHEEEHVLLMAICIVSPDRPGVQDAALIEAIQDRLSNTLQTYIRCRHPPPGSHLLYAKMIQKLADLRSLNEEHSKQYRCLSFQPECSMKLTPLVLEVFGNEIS

What follows are compounds tested against Vitamin D3 receptor (Homo sapiens) (UniProt P11473) (assay: Inhibitors of the vitamin D receptor (VDR): qHTS). Settings: VDR-SRC2-3 peptide fluorescence polarization, 2 h; max response, negative = inhibition: stronger effect = lower value.
Method in brief: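 Inhibition of the VDR/SRC2-3 peptide interaction is quantified by fluorescence polarization. Compounds (23 nl, pintool) incubate with the reagents for 2 hours at ambient room temperature.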
% is scaled to controls: 0 for no effect and ±100 for the full control effect; potency is read from the fitted curve at half-maximal effect.

Max response, negative = inhibition, inactive:
CC12CCC(=O)N1C(C(=O)Nc1ccc(F)cc1)CS2 (configuration not stated) 6.72%, O=C(O)c1nc(NCCc2ccccc2)ncc1Cl -11.9%, Cc1cc(NC(=O)c2cccc(COc3ccc(Br)cc3)c2)no1 -27.4%, Cc1ccc(OCC(=O)N/N=C2\CC(=O)CC(C)(C)C2)c(Br)c1 0.906%, O=C(O)CCc1ccc(-c2ccc(F)cc2)n1CC1CCCO1 (configuration not stated) 3.7%, COc1cccc(NC(=O)Cn2c(=O)n(Cc3nc(-c4ccccc4)no3)c(=O)c3ccccc32)c1 9.89%, O=C(CN1C(=O)/C(=C/c2ccco2)SC1=S)Nc1ccc(O)c(C(=O)O)c1 -5.69%, COCCCNC(=O)C[C@H]1C[C@H](C(=O)N2CCCCC2)[C@@]2(CCc3ccccc3)c3[nH]c4cc(-c5ccco5)ccc4c3CCN2C1=O -19.6%, CC(=O)OC1C(=O)N(Cc2ccccc2)C1c1ccc(C)cc1 (configuration not stated) -17.1%, CCc1nc2sc3c(N4CCCCC4)ncnc3c2c2c1CCCC2 2.54%, COc1ccc(Br)cc1CNC(=O)CSc1n[nH]c(-c2ccccc2)n1 14.2%, Cc1ccc(C)c(OC2=NS(=O)(=O)c3ccccc32)c1 -16.8%

Potency, inconclusive:
CC(C)c1ccc(N(CC(=O)N/N=C/c2ccc(OC3CSC3)cc2)S(=O)(=O)c2ccccc2)cc1 100 µM [inhibitor, single point], O=S1(=O)CCC(NC(=S)N2CCCCC2)C1 (configuration not stated) 39.8 µM [inhibitor, single point], S=C(c1ccc(-c2cccc(Cl)c2)o1)N1CCOCC1 63.1 µM [inhibitor, partial curve, poor fit], CCC(C)[C@H](NC(=O)NCc1cccs1)C(=O)O (some centres not stated) 44.7 µM [inhibitor, partial curve, poor fit], CSc1ncccc1C(=O)NC(C)CCc1ccccc1 (configuration not stated) 39.8 µM [inhibitor, partial curve, poor fit], CC(C(=O)O)c1ccc2c(c1)[nH]c1ccc(Cl)cc12 (configuration not stated) 89.1 µM [inhibitor, single point], O=C(COc1ccccc1)Nc1nc(-c2cccs2)cs1 39.8 µM [inhibitor, single point], C/C(=N/Nc1nc(-c2ccccc2)c(CC(=O)O)s1)c1ccccc1 79.4 µM [inhibitor, partial curve], COc1ccc(/C=N\NC(=O)C2C(=O)NCC2c2ccccc2)cc1O (configuration not stated) 8.91 µM [inhibitor, single point], O=C(O)c1cc2c(cc1Br)OCCCO2 89.1 µM [inhibitor, single point], Cc1ccccc1S(=O)(=O)/N=C(/Nc1c(C)n(C)n(-c2ccccc2)c1=O)c1ccccc1 50.1 µM [inhibitor, partial curve, poor fit], C[C@H](NC(=O)c1[nH]cnc1C(=O)Nc1ccc(CNC(=O)OC(C)(C)C)cc1)C(=O)OC(C)(C)C 79.4 µM [inhibitor, single point], CCOc1ccc(S(=O)(=O)N2CCN(C(=O)c3ccc(Cl)c(S(=O)(=O)N4CCOCC4)c3)CC2)cc1 100 µM [inhibitor, partial curve, poor fit], CCC(=O)N(C)CCc1cc2c(c(OC)c1/C=N/NC(=O)[C@H]1C[C@@H]1c1ccccc1)OCO2 70.8 µM [inhibitor, partial curve, poor fit], CCn1c(CNc2nc(-c3ccccc3)cs2)nnc1SCC(=O)NCc1ccco1 79.4 µM [inhibitor, single point], CCCCC1=C(C(=O)OCC)C(C(=O)OCC)Oc2ccccc21 (configuration not stated) 63.1 µM [inhibitor, partial curve, poor fit], COc1ccc(-c2nc(CS(=O)CC(=O)NCc3cccnc3)c(C)o2)cc1OC (configuration not stated) 100 µM [inhibitor, single point], Cc1nn(C(=O)c2ccco2)c(C)c1CN1C(=O)c2ccccc2C1=O 7.94 µM [inhibitor, partial curve, poor fit], C=CCn1c(SCc2nc3ccccc3nc2C)nnc1-c1ccoc1C 31.6 µM [inhibitor, partial curve, poor fit], COc1ccc(Cl)cc1S(=O)(=O)NC(C)C(=O)NCc1ccc2c(c1)OCO2 (configuration not stated) 79.4 µM [inhibitor, single point], Cn1c(/C=C/c2ccc(Cl)cc2Cl)c([N+](=O)[O-])c(=O)n(C)c1=O 22.4 µM [inhibitor, partial curve, poor fit], CC(=O)N1CCN(C(=O)CC2OC(=O)c3ccccc32)CC1 (configuration not stated) 89.1 µM [inhibitor, single point], OC(CCN1CC2CCC(CC2)C1)(Cc1ccccc1)c1ccco1 (configuration not stated) 79.4 µM [inhibitor, partial curve, poor fit], CC1=C(C(=O)Nc2ccccc2)C(c2ccc(Cl)cc2)n2c(s/c(=C/c3cccc(OCC(=O)O)c3)c2=O)=N1 (configuration not stated) 14.1 µM [inhibitor, partial curve, poor fit], COc1ccc(C(=O)N2CCC[C@@]3(CCN(Cc4ccccc4)C3)C2)cc1 28.2 µM [inhibitor, partial curve]

Potency, active:
O=C(/C=C/c1ccncc1)c1ccc(NC(=O)c2ccccc2F)cc1 31.6 µM, CCS(=O)(=O)c1ccc2oc(Nc3ccc(C(C)C)cc3)nc2c1 39.8 µM, O=C1C=CC(=O)N1N(c1ccccc1)c1ccccc1 12.6 µM, O=Cc1sc(=O)n(Cc2cccc(C(=O)O)c2)c1Cl 79.4 µM, CSc1nnc(Cn2c(=O)sc3ccccc32)n1-c1ccccc1C 50.1 µM
